Measured values from the supplement of paper PMC11732987, “Enantioselective OTUD7B fragment discovery through chemoproteomics screening and high-throughput optimisation” (Communications Chemistry, 2025).
Some of the results follow. The data scatter; read single values as rough.

Amino acid sequences for entries named in this document (tags omitted). A change or cut given only in a name is not applied to a line headed by its entry. Residues count along the entry.
UniProt Q96QU8: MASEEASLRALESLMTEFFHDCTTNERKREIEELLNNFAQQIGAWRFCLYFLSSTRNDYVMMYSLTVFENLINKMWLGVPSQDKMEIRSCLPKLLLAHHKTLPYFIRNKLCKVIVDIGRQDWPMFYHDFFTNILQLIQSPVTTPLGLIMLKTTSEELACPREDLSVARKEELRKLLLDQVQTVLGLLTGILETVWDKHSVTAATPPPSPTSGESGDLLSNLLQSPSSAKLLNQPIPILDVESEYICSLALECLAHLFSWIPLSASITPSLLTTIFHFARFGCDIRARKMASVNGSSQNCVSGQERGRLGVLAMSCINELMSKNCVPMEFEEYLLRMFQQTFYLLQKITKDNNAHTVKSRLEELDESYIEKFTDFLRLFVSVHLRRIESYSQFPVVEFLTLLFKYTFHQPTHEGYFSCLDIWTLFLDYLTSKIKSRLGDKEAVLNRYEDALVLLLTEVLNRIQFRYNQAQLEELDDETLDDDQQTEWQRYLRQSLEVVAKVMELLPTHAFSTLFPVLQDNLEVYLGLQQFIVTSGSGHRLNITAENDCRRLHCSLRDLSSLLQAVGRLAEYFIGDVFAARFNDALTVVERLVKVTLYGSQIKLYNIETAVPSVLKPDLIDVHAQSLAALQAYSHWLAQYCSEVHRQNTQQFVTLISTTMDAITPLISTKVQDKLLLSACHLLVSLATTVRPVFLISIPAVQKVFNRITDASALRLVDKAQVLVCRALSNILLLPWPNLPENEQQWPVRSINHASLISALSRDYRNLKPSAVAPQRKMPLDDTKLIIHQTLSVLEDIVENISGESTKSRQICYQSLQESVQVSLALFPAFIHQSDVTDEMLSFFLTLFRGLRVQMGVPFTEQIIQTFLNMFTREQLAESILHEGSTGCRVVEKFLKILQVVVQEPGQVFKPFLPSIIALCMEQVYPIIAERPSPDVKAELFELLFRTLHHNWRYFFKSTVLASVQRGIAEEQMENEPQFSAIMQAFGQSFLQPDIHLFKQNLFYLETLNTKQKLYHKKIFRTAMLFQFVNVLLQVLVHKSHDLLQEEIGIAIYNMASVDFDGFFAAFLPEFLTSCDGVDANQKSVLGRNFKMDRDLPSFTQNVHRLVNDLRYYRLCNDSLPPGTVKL
UniProt P10074, 263-284: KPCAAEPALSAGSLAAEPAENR
UniProt Q99592: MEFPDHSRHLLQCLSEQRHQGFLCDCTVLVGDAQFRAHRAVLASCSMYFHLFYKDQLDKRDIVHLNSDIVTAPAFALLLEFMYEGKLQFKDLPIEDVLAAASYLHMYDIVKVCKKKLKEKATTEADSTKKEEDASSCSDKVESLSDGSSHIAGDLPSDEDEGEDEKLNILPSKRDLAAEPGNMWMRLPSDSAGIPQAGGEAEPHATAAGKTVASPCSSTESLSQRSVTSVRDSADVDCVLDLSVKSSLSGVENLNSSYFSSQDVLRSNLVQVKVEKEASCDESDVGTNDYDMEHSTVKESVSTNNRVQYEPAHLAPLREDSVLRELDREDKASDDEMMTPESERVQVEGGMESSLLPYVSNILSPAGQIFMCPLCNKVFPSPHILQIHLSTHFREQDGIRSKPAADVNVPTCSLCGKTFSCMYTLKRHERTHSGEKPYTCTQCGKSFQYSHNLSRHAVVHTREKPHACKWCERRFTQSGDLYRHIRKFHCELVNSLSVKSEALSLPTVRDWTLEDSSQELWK
UniProt O15062: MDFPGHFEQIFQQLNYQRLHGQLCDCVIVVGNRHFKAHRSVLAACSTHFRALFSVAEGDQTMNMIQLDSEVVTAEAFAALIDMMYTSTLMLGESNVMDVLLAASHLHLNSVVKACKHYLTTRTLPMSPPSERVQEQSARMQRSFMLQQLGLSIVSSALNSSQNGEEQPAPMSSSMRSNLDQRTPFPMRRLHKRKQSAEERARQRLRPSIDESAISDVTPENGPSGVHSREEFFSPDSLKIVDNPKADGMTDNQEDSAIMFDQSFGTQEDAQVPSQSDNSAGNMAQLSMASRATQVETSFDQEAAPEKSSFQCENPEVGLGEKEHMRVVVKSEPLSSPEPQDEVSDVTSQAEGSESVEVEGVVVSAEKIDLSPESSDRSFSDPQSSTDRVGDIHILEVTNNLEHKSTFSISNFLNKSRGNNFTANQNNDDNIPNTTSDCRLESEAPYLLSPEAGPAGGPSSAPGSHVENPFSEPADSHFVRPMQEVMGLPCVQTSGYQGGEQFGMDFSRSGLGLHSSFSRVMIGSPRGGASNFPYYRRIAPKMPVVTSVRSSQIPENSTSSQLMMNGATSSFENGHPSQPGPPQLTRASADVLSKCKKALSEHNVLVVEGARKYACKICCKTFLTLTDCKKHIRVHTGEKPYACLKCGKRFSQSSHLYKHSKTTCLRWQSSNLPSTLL
UniProt O75083, 490-511: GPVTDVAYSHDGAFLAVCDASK
UniProt O75152: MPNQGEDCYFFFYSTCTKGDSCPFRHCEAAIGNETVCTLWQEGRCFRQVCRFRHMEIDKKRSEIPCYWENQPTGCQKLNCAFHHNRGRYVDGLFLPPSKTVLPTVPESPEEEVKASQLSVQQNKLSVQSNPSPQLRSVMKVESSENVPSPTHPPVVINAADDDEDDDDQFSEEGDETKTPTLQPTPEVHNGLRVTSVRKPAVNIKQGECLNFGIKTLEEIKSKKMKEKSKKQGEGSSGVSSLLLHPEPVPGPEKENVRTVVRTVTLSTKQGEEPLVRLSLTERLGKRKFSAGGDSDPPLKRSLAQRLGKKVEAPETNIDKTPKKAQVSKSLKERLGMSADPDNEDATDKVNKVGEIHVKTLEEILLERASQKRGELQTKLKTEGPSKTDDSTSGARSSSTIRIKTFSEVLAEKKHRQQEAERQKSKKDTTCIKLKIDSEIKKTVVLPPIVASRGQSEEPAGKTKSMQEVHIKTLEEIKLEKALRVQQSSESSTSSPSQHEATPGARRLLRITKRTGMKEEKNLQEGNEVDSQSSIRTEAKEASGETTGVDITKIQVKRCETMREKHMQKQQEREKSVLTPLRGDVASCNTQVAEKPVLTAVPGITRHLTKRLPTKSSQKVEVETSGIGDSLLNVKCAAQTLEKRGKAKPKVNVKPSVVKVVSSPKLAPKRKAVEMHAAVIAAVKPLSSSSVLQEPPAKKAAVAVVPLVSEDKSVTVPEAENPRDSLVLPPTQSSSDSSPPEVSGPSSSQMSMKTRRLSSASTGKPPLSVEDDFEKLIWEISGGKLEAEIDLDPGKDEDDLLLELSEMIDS
UniProt Q6RFH5: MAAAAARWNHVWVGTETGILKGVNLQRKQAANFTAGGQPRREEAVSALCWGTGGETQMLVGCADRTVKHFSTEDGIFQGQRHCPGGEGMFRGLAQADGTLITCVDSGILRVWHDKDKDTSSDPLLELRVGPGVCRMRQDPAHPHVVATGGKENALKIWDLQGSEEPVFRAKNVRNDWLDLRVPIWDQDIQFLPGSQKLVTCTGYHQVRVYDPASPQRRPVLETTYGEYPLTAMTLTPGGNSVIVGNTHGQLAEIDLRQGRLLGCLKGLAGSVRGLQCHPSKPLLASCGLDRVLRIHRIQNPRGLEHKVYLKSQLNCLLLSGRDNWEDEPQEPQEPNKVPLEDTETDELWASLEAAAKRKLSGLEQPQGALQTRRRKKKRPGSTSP
UniProt Q9BYP7: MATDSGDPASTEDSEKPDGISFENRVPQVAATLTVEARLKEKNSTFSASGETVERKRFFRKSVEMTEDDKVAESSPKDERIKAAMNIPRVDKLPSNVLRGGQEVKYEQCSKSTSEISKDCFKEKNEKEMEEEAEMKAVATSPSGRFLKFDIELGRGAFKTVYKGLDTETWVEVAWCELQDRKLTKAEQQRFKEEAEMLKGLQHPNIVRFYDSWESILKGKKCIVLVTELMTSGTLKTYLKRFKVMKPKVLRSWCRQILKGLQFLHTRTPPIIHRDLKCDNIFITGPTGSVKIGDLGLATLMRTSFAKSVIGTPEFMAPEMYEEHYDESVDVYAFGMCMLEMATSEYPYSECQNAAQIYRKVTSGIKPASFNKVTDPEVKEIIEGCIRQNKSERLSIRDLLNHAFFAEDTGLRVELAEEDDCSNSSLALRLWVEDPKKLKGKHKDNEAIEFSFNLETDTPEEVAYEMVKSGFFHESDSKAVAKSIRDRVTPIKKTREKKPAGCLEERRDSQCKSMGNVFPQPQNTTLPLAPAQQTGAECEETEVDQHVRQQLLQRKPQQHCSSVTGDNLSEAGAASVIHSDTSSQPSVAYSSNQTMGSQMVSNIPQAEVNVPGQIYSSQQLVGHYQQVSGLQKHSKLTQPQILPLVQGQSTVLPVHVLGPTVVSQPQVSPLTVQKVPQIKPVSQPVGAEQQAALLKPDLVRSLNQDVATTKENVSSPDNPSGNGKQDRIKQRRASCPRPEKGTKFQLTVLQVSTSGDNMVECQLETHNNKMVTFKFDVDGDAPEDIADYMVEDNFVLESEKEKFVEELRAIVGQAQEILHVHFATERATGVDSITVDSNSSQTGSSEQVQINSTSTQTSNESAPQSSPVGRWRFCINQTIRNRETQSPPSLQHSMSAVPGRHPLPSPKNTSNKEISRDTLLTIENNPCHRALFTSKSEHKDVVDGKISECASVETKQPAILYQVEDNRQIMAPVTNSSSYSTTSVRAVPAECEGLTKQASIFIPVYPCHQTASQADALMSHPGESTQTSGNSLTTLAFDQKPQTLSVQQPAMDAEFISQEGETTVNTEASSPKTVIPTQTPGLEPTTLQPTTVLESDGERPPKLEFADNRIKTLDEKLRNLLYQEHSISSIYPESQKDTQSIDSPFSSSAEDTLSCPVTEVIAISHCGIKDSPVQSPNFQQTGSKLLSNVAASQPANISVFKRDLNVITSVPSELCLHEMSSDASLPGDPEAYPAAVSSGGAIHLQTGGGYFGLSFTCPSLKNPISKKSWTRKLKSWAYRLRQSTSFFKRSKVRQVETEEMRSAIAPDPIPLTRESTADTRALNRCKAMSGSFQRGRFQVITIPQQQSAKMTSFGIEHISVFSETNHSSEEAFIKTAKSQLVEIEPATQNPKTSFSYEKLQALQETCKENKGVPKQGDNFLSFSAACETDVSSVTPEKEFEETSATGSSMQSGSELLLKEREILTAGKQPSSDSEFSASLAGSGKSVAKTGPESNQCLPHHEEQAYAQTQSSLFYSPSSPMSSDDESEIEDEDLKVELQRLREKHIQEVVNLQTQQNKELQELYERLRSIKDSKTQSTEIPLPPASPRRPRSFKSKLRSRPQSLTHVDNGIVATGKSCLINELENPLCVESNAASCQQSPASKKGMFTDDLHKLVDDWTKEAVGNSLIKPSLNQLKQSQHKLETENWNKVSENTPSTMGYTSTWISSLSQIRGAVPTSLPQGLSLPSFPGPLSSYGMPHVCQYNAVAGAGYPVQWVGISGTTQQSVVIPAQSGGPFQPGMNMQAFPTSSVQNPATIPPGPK
UniProt Q9HAV4: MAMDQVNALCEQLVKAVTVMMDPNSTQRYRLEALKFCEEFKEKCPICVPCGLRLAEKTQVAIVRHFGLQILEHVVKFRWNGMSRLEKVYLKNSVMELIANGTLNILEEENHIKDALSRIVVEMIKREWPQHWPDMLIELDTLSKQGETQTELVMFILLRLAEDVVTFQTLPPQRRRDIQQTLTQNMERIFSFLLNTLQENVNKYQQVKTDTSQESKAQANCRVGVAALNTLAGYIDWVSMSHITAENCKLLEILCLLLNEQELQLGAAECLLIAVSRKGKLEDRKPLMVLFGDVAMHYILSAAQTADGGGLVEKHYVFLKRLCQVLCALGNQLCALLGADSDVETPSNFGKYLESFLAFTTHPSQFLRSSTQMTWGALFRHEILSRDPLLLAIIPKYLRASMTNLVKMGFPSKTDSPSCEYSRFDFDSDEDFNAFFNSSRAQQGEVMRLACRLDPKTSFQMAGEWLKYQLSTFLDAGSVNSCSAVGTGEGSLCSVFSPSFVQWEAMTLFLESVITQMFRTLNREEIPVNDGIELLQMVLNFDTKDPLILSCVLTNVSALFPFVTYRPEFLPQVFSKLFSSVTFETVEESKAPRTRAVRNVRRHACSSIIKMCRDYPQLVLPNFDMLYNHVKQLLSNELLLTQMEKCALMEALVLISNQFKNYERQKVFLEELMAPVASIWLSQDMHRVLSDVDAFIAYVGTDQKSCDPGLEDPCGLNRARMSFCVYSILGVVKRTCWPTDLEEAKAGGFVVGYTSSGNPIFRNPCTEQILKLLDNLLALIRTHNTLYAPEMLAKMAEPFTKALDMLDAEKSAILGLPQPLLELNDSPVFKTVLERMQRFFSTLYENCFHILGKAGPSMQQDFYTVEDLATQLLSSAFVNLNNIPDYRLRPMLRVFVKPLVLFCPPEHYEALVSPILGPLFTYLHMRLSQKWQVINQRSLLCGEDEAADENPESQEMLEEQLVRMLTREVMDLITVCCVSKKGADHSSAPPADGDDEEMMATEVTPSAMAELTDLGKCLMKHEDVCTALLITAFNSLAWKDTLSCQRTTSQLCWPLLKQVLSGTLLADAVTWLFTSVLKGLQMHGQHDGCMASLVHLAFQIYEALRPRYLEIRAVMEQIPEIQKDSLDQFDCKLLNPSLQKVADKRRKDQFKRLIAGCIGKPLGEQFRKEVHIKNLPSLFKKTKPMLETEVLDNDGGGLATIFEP

What follows are targets tested with ClCC(=O)N[C@@H]1CCCc2ccccc12 (assay: log2 mean competition ratio of IA-DTB cysteine labelling (DMSO/compound) (log2 ratio); higher = stronger cysteine engagement by compound). Conditions: 50 µM; treatment time: 4 h; cell line lysate: HEK293T.
Method: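 IA-DTB competitive cysteine chemoproteomics in HEK293T RIPA lysate. Lysates were treated with compound 29 or 30 at 50 or 200 µM for 4 h, then IA-DTB (500 µM, 1 h), trypsin-digested, NeutrAvidin-enriched and analysed by diaPASEF. Competition ratio = intensity DMSO / intensity compound (n=4 treated, n=64 DMSO); binding: mean log2 CR ≥ 1 and p ≤ 0.05 plus QC filters. Target is the cysteine site.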
For VPS52 C220 (UniProt Q8N1B4), the “log2 mean competition ratio” value was -0.0603. For XPO6 C22 (UniProt Q96QU8), the “log2 mean competition ratio” value was -0.15. With ZBTB48 C265 (UniProt P10074) the “log2 mean competition ratio” value was -0.0624. WDR6 C1107 (UniProt Q9NNW5) was tested, and the “log2 mean competition ratio” value was -2.06e-05. For ZBTB18 C13 (UniProt Q99592), the “log2 mean competition ratio” value was -0.0178. ZBTB5 C312 (UniProt O15062) was tested, and the “log2 mean competition ratio” value was -0.0846. With WDR37 C417 (UniProt Q9Y2I8) the “log2 mean competition ratio” value was -0.21. In the case of WDR1 C507 (UniProt O75083), the “log2 mean competition ratio” value is reported as 0.068. In the case of ZC3H12A C103 (UniProt Q5D1E8), the “log2 mean competition ratio” value is reported as -0.536. With ZC3H11A C209 (UniProt O75152) the “log2 mean competition ratio” value was 0.243. With ZBTB11 C262 (UniProt O95625) the “log2 mean competition ratio” value was -0.0826. In the case of WDR75 C490 (UniProt Q8IWA0), the “log2 mean competition ratio” value is reported as 0.0582. With WDR74 C134 (UniProt Q6RFH5) the “log2 mean competition ratio” value was -0.409. VPS35L C253 (UniProt Q7Z3J2) was tested, and the “log2 mean competition ratio” value was -0.418. In the case of VPS4A C60 (UniProt Q9UN37), the “log2 mean competition ratio” value is reported as 0.273. With WDFY3 C1436 (UniProt Q8IZQ1) the “log2 mean competition ratio” value was -0.289. With WNK3 C385 (UniProt Q9BYP7) the “log2 mean competition ratio” value was -0.095. With XPO5 C605 (UniProt Q9HAV4) the “log2 mean competition ratio” value was 0.136. XPO1 C528 (UniProt O14980) was tested, and the “log2 mean competition ratio” value was -0.0407. For YTHDF2 C482 (UniProt Q9Y5A9), the “log2 mean competition ratio” value was 0.188.

Same assay, conditions: 200 µM; treatment time: 4 h; cell line lysate: HEK293T
VPS52 C220 (UniProt Q8N1B4) was tested, and the “log2 mean competition ratio” value was 0.288. With XPO6 C22 (UniProt Q96QU8) the “log2 mean competition ratio” value was 0.406. ZBTB48 C265 (UniProt P10074) was tested, and the “log2 mean competition ratio” value was 0.176. With WDR6 C1107 (UniProt Q9NNW5) the “log2 mean competition ratio” value was -0.169. With ZBTB18 C13 (UniProt Q99592) the “log2 mean competition ratio” value was 0.000249. For ZBTB5 C312 (UniProt O15062), the “log2 mean competition ratio” value was 0.243. WDR37 C417 (UniProt Q9Y2I8) was tested, and the “log2 mean competition ratio” value was 0.083. For WDR1 C507 (UniProt O75083), the “log2 mean competition ratio” value was -0.00611. In the case of ZC3H12A C103 (UniProt Q5D1E8), the “log2 mean competition ratio” value is reported as -0.568. In the case of ZC3H11A C209 (UniProt O75152), the “log2 mean competition ratio” value is reported as 0.314. For ZBTB11 C262 (UniProt O95625), the “log2 mean competition ratio” value was -0.013. In the case of WDR75 C490 (UniProt Q8IWA0), the “log2 mean competition ratio” value is reported as 0.122. For WDR74 C134 (UniProt Q6RFH5), the “log2 mean competition ratio” value was -0.0574. For VPS35L C253 (UniProt Q7Z3J2), the “log2 mean competition ratio” value was -0.109. In the case of VPS4A C60 (UniProt Q9UN37), the “log2 mean competition ratio” value is reported as 0.0433. WDFY3 C1436 (UniProt Q8IZQ1) was tested, and the “log2 mean competition ratio” value was -0.163. With WNK3 C385 (UniProt Q9BYP7) the “log2 mean competition ratio” value was -0.387. In the case of XPO5 C605 (UniProt Q9HAV4), the “log2 mean competition ratio” value is reported as -0.111. For XPO1 C528 (UniProt O14980), the “log2 mean competition ratio” value was -0.193. YTHDF2 C482 (UniProt Q9Y5A9) was tested, and the “log2 mean competition ratio” value was -0.114.
